Measured values as given in patent US9289506B2, “Surface binding of nanoparticle based drug delivery to tissue” (Massachusetts Institute of Technology, priority 2013, dated 2016).

Assay: Competitive binding of FITC-Avidin and unlabeled Avidin in cartilage (binding isotherm fit)
Parameters: species or system bovine
Conditions: best fit of binding isotherm to FIG. 13 data
Experimental: To test this hypothesis, competitive binding experiments were performed in which 3 mm diameter cartilage disks were equilibrated for 3 days in 300 μl buffer containing a fixed amount of (fluorescently labeled) FITC-Avidin (1 μM) and graded amounts of unlabeled Avidin (0, 10, 76, 100, and 203 μM). The disks were split into half disks to reduce the time needed for equilibration, which was performed in 96 well plates at 37° C. The uptake ratio, RU, was measured and plotted versus the total bath concentration of Avidin (labeled+unlabeled, FIG. 13), where RU is defined as the total concentration of Avidin inside the cartilage (bound (CB) plus free (CF)) per intra-tissue water weight, normalized to the Avidin concentration in the equilibration bath (CBath):
Labeled and unlabeled Avidin were held to partition into the cartilage identically. At very low concentration of the labeled Avidin (≦1 μM), a high uptake of ˜120 was observed. When unlabeled Avidin was added to the bath, both species (labeled and unlabeled) could compete for the same (constant) number of binding sites available in the tissue (site density NT). […] To model the data of FIG. 13, a first-order, bimolecular, reversible reaction was produced to describe binding of Avidin to a single dominant binding species within cartilage. […]
[formula] […] Thus, K is determined by both steric hindrance and electrostatic (Donnan) interactions. […]

## Avidin: positively charged globular glycosylated tetrameric protein, pI 10.5, 66 kDa, diameter ~7 nm (Invitrogen); SEQ ID NO 1
  intra-tissue binding site density NT: 2920 µM and ~3000 µM and ~2920 µM

“And” between values parts separate entries of the source, which are not always exact repeats. Equal entries are not always repeated.
